# According to publication PMC10112893:
# The chains behind the UniProt entries cited, without tags or fusion partners.
# UniProt Q9SYP1: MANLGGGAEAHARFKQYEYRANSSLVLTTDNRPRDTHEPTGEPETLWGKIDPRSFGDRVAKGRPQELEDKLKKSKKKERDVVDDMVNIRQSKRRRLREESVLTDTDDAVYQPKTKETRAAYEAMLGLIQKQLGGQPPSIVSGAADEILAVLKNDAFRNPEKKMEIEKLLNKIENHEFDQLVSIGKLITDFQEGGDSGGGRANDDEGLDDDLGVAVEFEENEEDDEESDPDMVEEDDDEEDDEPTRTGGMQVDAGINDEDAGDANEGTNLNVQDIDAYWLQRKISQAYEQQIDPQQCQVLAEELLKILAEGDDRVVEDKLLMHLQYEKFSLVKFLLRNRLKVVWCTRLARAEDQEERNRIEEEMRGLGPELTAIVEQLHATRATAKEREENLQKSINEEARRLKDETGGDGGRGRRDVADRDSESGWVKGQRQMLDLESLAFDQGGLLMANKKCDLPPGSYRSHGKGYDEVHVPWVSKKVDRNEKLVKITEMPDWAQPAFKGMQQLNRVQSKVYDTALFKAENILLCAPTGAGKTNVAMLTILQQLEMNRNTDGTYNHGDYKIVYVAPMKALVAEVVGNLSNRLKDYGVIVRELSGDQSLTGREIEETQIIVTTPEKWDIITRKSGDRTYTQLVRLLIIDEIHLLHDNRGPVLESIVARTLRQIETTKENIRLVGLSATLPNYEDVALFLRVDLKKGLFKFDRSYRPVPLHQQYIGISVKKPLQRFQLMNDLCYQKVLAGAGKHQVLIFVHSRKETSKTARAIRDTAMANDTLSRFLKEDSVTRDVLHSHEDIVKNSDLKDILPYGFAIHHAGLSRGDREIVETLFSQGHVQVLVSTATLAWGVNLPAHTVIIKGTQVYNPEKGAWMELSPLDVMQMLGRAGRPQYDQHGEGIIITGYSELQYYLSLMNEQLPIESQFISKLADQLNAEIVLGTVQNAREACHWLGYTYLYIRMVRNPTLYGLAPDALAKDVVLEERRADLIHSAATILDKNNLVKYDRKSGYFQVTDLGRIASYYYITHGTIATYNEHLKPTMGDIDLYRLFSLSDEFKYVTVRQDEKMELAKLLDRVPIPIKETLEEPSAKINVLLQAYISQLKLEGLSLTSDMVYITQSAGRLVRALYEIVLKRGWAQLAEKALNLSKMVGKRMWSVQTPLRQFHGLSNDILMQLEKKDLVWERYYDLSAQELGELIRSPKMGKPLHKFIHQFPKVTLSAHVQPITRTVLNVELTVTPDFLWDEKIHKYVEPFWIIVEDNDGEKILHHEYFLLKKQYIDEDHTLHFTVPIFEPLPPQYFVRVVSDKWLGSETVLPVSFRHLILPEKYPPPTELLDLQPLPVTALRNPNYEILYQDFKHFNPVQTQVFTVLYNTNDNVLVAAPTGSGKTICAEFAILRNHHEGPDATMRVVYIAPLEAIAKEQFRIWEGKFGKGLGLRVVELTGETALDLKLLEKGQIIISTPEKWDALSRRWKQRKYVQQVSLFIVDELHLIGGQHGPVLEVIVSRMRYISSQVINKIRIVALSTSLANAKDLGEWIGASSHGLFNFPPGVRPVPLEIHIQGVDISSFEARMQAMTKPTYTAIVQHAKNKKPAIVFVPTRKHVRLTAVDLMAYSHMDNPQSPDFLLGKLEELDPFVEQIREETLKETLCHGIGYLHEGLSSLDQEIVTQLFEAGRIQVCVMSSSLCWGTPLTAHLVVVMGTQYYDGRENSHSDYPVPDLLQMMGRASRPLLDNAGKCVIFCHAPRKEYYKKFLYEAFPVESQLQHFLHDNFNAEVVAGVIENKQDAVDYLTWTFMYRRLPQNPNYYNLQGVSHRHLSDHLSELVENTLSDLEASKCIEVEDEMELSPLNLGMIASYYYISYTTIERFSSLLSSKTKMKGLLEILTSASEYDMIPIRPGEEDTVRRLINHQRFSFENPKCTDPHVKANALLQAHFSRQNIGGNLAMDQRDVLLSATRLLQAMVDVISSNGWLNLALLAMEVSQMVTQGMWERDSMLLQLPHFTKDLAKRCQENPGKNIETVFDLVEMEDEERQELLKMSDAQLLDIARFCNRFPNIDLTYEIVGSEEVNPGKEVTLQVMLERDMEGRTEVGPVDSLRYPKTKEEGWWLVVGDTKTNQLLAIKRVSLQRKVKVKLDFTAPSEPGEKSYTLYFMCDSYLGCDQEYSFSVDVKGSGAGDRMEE
# UniProt Q8S307: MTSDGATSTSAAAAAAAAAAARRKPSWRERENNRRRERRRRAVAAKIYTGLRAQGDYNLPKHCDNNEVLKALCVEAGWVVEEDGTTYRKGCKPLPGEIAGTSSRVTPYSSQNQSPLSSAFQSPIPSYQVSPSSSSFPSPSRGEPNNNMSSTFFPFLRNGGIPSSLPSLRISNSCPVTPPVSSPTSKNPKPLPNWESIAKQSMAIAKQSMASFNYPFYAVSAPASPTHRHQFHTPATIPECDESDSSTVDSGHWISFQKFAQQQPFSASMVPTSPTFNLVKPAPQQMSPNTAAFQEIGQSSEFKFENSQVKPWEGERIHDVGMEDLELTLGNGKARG
# UniProt Q9SSD2: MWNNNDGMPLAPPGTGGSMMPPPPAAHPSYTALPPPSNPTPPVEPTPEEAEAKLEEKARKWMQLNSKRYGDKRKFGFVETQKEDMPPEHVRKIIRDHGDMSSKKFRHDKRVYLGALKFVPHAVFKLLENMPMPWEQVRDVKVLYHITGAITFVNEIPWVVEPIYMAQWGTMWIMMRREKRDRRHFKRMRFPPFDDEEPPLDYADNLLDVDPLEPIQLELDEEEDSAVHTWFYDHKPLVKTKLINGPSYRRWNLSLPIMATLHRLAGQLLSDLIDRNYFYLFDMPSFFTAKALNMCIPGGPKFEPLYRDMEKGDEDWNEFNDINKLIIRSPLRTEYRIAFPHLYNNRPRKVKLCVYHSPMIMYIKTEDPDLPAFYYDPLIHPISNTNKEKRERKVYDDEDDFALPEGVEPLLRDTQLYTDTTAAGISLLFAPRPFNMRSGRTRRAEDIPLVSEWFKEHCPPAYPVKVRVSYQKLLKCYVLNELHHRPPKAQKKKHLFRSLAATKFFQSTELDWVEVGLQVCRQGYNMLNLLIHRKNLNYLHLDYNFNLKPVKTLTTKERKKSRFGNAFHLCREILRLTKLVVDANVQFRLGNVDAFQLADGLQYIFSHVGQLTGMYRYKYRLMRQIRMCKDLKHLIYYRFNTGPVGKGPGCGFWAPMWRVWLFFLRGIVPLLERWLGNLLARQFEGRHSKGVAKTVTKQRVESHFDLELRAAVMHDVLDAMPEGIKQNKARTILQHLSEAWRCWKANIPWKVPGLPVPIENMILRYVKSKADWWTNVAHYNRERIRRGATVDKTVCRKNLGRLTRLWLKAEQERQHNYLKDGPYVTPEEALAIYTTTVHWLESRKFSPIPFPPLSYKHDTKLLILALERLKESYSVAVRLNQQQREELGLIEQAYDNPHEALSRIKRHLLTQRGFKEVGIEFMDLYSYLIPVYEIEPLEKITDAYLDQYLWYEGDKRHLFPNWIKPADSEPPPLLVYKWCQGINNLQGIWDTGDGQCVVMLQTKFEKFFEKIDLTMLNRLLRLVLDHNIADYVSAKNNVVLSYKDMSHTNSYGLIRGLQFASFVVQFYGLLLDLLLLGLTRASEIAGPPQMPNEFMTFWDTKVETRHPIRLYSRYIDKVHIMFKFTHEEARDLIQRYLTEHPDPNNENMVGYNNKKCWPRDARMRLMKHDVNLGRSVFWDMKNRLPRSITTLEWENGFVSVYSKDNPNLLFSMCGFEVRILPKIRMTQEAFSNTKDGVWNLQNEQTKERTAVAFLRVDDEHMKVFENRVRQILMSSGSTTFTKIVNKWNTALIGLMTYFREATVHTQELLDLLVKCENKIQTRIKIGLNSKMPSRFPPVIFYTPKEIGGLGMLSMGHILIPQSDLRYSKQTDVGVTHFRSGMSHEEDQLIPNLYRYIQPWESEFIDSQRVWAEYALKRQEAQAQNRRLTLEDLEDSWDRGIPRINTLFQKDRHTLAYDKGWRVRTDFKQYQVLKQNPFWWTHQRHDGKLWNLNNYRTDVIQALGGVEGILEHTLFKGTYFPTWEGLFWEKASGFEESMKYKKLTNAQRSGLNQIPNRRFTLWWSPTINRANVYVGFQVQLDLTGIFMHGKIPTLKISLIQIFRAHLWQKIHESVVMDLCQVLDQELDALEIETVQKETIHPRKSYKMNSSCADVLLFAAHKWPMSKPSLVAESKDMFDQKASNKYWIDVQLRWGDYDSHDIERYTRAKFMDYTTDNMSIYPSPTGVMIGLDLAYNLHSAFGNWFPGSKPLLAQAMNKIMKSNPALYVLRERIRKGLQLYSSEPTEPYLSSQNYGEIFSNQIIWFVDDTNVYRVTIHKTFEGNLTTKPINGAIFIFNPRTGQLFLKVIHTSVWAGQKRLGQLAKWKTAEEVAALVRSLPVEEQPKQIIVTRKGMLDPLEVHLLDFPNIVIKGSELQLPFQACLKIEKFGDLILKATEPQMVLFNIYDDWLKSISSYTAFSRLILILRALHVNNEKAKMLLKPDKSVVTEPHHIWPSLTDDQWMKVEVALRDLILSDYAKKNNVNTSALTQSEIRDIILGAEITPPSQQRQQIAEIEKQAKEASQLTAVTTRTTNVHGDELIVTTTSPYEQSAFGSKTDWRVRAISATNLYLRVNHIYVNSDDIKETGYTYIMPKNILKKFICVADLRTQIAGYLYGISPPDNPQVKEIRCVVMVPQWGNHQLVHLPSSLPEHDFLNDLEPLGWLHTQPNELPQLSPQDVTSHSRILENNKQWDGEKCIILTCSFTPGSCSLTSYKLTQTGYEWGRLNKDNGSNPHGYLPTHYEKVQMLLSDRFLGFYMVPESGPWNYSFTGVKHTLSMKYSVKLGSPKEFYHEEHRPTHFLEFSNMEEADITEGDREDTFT
# These are yes or no findings as the source states them, for the method shown. For some of these results: Binding seen in cells or lysates may run through a third protein. Some results given as binding are weak or reduced against the parent protein; the word gives no strength. Sequences can lack the tags named with a protein.
# Tests used:
# [1] = target: T1, MERISTEM-… (MDF), BiFC fusion (Arabidopsis) (UniProt Q9LFE0); assay: split reporter; BiFC with split YFP (pYFN43 + pYFC43 + p19, 1:1:1) by agroinfiltration of Nicotiana benthamiana leaves; fluorescence of leaf epidermis imaged after 3 days
# T1 sequence: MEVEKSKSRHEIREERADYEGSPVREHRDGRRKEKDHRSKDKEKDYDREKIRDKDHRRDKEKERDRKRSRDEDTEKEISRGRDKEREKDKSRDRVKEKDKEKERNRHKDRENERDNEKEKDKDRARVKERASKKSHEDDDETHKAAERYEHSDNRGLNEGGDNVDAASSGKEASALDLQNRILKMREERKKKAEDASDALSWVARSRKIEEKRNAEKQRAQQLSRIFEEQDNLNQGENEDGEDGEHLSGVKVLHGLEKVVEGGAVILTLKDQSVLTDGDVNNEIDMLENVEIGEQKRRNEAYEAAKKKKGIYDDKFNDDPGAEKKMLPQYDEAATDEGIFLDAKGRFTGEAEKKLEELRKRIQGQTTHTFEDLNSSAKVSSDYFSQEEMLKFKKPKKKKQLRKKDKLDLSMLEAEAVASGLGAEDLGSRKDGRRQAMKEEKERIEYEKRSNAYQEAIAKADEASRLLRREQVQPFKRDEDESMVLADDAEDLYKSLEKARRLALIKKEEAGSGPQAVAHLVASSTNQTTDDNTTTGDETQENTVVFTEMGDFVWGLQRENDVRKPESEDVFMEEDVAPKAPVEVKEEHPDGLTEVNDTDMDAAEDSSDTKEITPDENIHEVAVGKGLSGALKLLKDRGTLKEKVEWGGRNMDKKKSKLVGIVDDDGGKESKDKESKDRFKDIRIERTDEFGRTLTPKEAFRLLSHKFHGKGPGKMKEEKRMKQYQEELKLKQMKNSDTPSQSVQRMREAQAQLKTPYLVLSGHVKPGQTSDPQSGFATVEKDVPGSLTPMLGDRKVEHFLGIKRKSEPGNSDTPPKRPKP
# [2] = target: T2, MERISTEM-… (MDF), yeast two-hybrid fusion (Arabidopsis) (UniProt Q9LFE0); assay: two-hybrid; Clontech Matchmaker GAL4 system 3; pGBKT7 and pGADT7 constructs in AH109 and Y187, mated, both directions; diploids spotted on -WLA, -WLH with 2.5 mM 3AT and -WLAH with 2.5 mM 3AT; 5-7 days at 30°C
# T2 sequence: T1 sequence
binding [1],binding [2],Substance
binds,,"BRR2A, BiFC fusion (from UniProt Q9SYP1 1-2171)"
binds,,"BZR1, BiFC fusion (pYFN43BZR1) (from UniProt Q8S307 1-336)"
no binding,,"PRP8A, BiFC fusion (from UniProt Q9SSD2 1-2359)"
,no binding,"PRP8A, yeast two-hybrid fusion (from UniProt Q9SSD2 1-2359)"
